{
  "source": "PubChem BioAssay AID212",
  "about": "(DTP/NCI, 2004)",
  "test_system": "BDF1 mice, colon carcinoma 38 sc, T/C %",
  "experiment": "NCI In Vivo Anticancer Drug Screen. Data for tumor model Colon Carcinoma 38 (subcutaneous) in B6D2F1 (BDF1) mice",
  "conditions": "T/C endpoint: median tumor weight (est.), higher T/C = larger tumour; for T/C: evaluated on day 20",
  "method_in_brief": "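Transplantable tumor in mice; compound-treated vs vehicle-dosed controls. Measured survival or tumor size; value = T ÷ C.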",
  "key": {"[1]": {"conditions": "dose: 40.0 mg/kg/injection, schedule: Q07DX002 (ip), vehicle: saline"}, "[2]": {"conditions": "dose: 25.0 mg/kg/injection, schedule: Q07DX002 (ip), vehicle: saline with Tween-80"}, "[3]": {"conditions": "dose: 400.0 mg/kg/injection, schedule: Q07DX002 (ip), vehicle: saline with Tween-80"}, "[4]": {"conditions": "dose: 400.0 mg/kg/injection, schedule: Q07DX002 (ip), vehicle: saline"}, "[5]": {"conditions": "dose: 800.0 mg/kg/injection, schedule: Q07DX002 (ip), vehicle: saline"}, "[6]": {"conditions": "dose: 800.0 mg/kg/injection, schedule: Q07DX002 (ip), vehicle: saline with Tween-80"}, "[7]": {"conditions": "dose: 25.0 mg/kg/injection, schedule: Q07DX002 (ip), vehicle: Klucel (hydroxypropylcellulose) (HPC)"}, "[8]": {"conditions": "dose: 400.0 mg/kg/injection, schedule: Q07DX002 (ip), vehicle: Klucel (hydroxypropylcellulose) (HPC)"}},
  "note": "The list is a part of this screen's results and no random one: it gathers tests that were run many times, whatever their T/C, doses with no T/C, and many T/C values between a quarter and a half above the control. Other doses and runs of a compound stand elsewhere. T/C gives the treated animals as a percentage of the vehicle group. Schedules are NCI's codes, taken here to give the interval after Q, in days (D) or hours (H), and the number of doses after X. Some T/C values are followed by the survivors on the day toxicity was checked, most often the fifth; without a count, all were alive then. Some entries hold several experiments; the values are given in rising order. Marks such as (2×) say how often a value occurs here. Some entries give survivors of the animals treated and no T/C: the source files T/C as zero there, which appears to mark a toxic dose or a test without result, not a measured value. Counts of survivors are from the toxicity check (mostly the fifth day) where no day follows; animals may have died later.",
  "data": [
    {"compound": "Nc1ncnc2c1ncn2C1C=C(CO)C(O)C1O", "note": "(stereo not given)", "values": [
      {"measurement": "survivor count", "setting": "dose: 8.0 mg/kg/injection, schedule: Q07DX002 (ip), vehicle: saline", "result": "4 of 10 on day 20"},
      {"measurement": "survivor count", "setting": "dose: 16.0 mg/kg/injection, schedule: Q07DX002 (ip), vehicle: saline", "result": "0 of 10 on day 20"},
      {"measurement": "survivor count", "setting": "dose: 32.0 mg/kg/injection, schedule: Q07DX002 (ip), vehicle: saline", "result": "0 of 10 on day 20"}
    ]},
    {"compound": "c1ccc([C@H]2CN3CCSC3=N2)cc1", "values": [
      {"measurement": "T/C", "setting": "dose: 5.0 mg/kg/injection, schedule: Q07DX002 (ip), vehicle: saline", "result": "58, 80, 81 (2×), 94 [9 of 10 alive on day 20] (2×), 100, 102, 120, 132 [9 of 10 alive on day 20], 133 % of control [7 of 9 alive on day 20]"},
      {"measurement": "T/C", "setting": "dose: 10.0 mg/kg/injection, schedule: Q07DX002 (ip), vehicle: saline", "result": "87 [9 of 10 alive on day 20], 89, 96 [9 of 10 alive on day 20], 98, 101, 106 [9 of 10 alive on day 20], 109, 123, 125, 132, 147 % of control"},
      {"measurement": "T/C", "setting": "dose: 10.0 mg/kg/injection, schedule: Q07DX003 (ip), vehicle: saline", "result": "130 % of control"},
      {"measurement": "T/C", "setting": "dose: 20.0 mg/kg/injection, schedule: Q07DX002 (ip), vehicle: saline", "result": "71, 81 [9 of 10 alive on day 20], 89 [8 of 10 alive on day 20], 93 [9 of 10 alive on day 20], 97, 98, 103 [9 of 10 alive on day 20], 114, 114 [9 of 10 alive on day 20], 123, 124 % of control"},
      {"measurement": "T/C", "setting": "[1]", "result": "68 [7 of 10 alive on day 20], 77 [7 of 10 alive on day 20], 83 [9 of 10 alive on day 20], 93, 99, 102 [8 of 10 alive on day 20], 104 [8 of 10 alive on day 20], 123 [9 of 10 alive on day 20], 151 % of control [9 of 10 alive on day 20]"},
      {"measurement": "survivor count", "setting": "[1]", "result": "5 of 10 on day 20 and 6 of 10 on day 20"},
      {"measurement": "T/C", "setting": "dose: 40.0 mg/kg/injection, schedule: Q07DX003 (ip), vehicle: saline", "result": "142 % of control"},
      {"measurement": "survivor count", "setting": "dose: 80.0 mg/kg/injection, schedule: Q07DX002 (ip), vehicle: saline", "result": "0 of 10 on day 20, 1 of 10 on day 20, 2 of 10 on day 20"}
    ]},
    {"compound": "COC1C=CC23c4cc5c(cc4C(O)OC2CN(C)C3C1)OCO5", "note": "(stereo not given)", "values": [
      {"measurement": "survivor count", "setting": "dose: 150.0 mg/kg/injection, schedule: Q07DX002 (ip), vehicle: suspension in saline", "result": "1 of 10 on day 20"}
    ]},
    {"compound": "CC(C)=CCNc1ncnc2c1ncn2C1OC(CO)C(O)C1O", "note": "(stereo not given)", "values": [
      {"measurement": "T/C", "setting": "[2]", "result": "144 % of control"},
      {"measurement": "T/C", "setting": "dose: 50.0 mg/kg/injection, schedule: Q07DX002 (ip), vehicle: saline", "result": "130 % of control"},
      {"measurement": "T/C", "setting": "dose: 200.0 mg/kg/injection, schedule: Q07DX002 (ip), vehicle: saline", "result": "142 % of control"},
      {"measurement": "survivor count", "setting": "[3]", "result": "0 of 10 on day 20"}
    ]},
    {"compound": "CS(=O)(=O)c1ncc(Br)cn1", "values": [
      {"measurement": "T/C", "setting": "[2]", "result": "126 % of control"}
    ]},
    {"compound": "O=C(O)C(CSC(c1ccccc1)(c1ccccc1)c1ccccc1)N=Cc1cccs1", "note": "(stereo not given)", "values": [
      {"measurement": "survivor count", "setting": "[4]", "result": "4 of 10 on day 20"},
      {"measurement": "survivor count", "setting": "dose: 400.0 mg/kg/injection, schedule: Q07DX002 (ip), vehicle: suspension in saline", "result": "4 of 10 on day 20"},
      {"measurement": "survivor count", "setting": "[5]", "result": "1 of 10 on day 20"},
      {"measurement": "survivor count", "setting": "dose: 800.0 mg/kg/injection, schedule: Q07DX002 (ip), vehicle: suspension in saline", "result": "0 of 10 on day 20"}
    ]},
    {"compound": "CCCCC(=O)OCC(=O)[C@]1(O)Cc2c(O)c3c(c(O)c2[C@@H](OC2CC(NC(=O)C(F)(F)F)C(O)C(C)O2)C1)C(=O)c1c(OC)cccc1C3=O", "note": "(stereo not given in full)", "values": [
      {"measurement": "T/C", "setting": "dose: 50.0 mg/kg/injection, schedule: Q07DX002 (ip), vehicle: water", "result": "140 % of control"}
    ]},
    {"compound": "CCCCOCN(COCCCC)C12CC3CC(CC(C3)C1)C2", "values": [
      {"measurement": "survivor count", "setting": "[3]", "result": "0 of 10 on day 20"},
      {"measurement": "survivor count", "setting": "[6]", "result": "0 of 10 on day 20"}
    ]},
    {"compound": "C=C(OP(=O)(OC)OC)Sc1ccccc1C", "values": [
      {"measurement": "survivor count", "setting": "dose: 1.5 mg/kg/injection, schedule: Q07DX002 (ip), vehicle: Klucel (hydroxypropylcellulose) (HPC)", "result": "6 of 10 on day 20"},
      {"measurement": "survivor count", "setting": "dose: 3.0 mg/kg/injection, schedule: Q07DX002 (ip), vehicle: Klucel (hydroxypropylcellulose) (HPC)", "result": "0 of 10 on day 20"},
      {"measurement": "survivor count", "setting": "dose: 3.12 mg/kg/injection, schedule: Q07DX002 (ip), vehicle: Klucel (hydroxypropylcellulose) (HPC)", "result": "0 of 10 on day 20"},
      {"measurement": "survivor count", "setting": "dose: 6.0 mg/kg/injection, schedule: Q07DX002 (ip), vehicle: Klucel (hydroxypropylcellulose) (HPC)", "result": "0 of 10 on day 20"},
      {"measurement": "survivor count", "setting": "dose: 6.25 mg/kg/injection, schedule: Q07DX002 (ip), vehicle: Klucel (hydroxypropylcellulose) (HPC)", "result": "0 of 10 on day 20"},
      {"measurement": "survivor count", "setting": "dose: 12.0 mg/kg/injection, schedule: Q07DX002 (ip), vehicle: Klucel (hydroxypropylcellulose) (HPC)", "result": "0 of 10 on day 20"},
      {"measurement": "survivor count", "setting": "dose: 12.5 mg/kg/injection, schedule: Q07DX002 (ip), vehicle: Klucel (hydroxypropylcellulose) (HPC)", "result": "0 of 10 on day 20"},
      {"measurement": "survivor count", "setting": "dose: 24.0 mg/kg/injection, schedule: Q07DX002 (ip), vehicle: Klucel (hydroxypropylcellulose) (HPC)", "result": "0 of 10 on day 20"},
      {"measurement": "survivor count", "setting": "[7]", "result": "0 of 10 on day 20"},
      {"measurement": "survivor count", "setting": "dose: 50.0 mg/kg/injection, schedule: Q07DX002 (ip), vehicle: Klucel (hydroxypropylcellulose) (HPC)", "result": "0 of 10 on day 20"},
      {"measurement": "survivor count", "setting": "dose: 100.0 mg/kg/injection, schedule: Q07DX002 (ip), vehicle: Klucel (hydroxypropylcellulose) (HPC)", "result": "0 of 10 on day 20"},
      {"measurement": "survivor count", "setting": "dose: 200.0 mg/kg/injection, schedule: Q07DX002 (ip), vehicle: Klucel (hydroxypropylcellulose) (HPC)", "result": "0 of 10 on day 20"},
      {"measurement": "survivor count", "setting": "[8]", "result": "0 of 10 on day 20"}
    ]},
    {"compound": "COc1ccc(-c2cc(=O)c3cccc(CC(=O)O)c3o2)cc1", "values": [
      {"measurement": "survivor count", "setting": "[3]", "result": "2 of 10 on day 20"}
    ]},
    {"compound": "Cc1nnc2ncccn12", "values": [
      {"measurement": "T/C", "setting": "[4]", "result": "126 % of control"},
      {"measurement": "survivor count", "setting": "[5]", "result": "0 of 10 on day 20"}
    ]},
    {"compound": "Cc1cc(NC(=S)SCc2ccc3c(c2)OCO3)ccc1Cl", "values": [
      {"measurement": "survivor count", "setting": "[8]", "result": "3 of 10 on day 20"},
      {"measurement": "survivor count", "setting": "dose: 800.0 mg/kg/injection, schedule: Q07DX002 (ip), vehicle: Klucel (hydroxypropylcellulose) (HPC)", "result": "0 of 10 on day 20"},
      {"measurement": "survivor count", "setting": "dose: 1600.0 mg/kg/injection, schedule: Q07DX002 (ip), vehicle: Klucel (hydroxypropylcellulose) (HPC)", "result": "0 of 10 on day 20"}
    ]},
    {"compound": "CCC[CH2][Sn]1([CH2]CCC)[O]C2C(CO)OC(n3ccc(N)nc3=O)C2[O]1", "note": "(stereo not given)", "values": [
      {"measurement": "survivor count", "setting": "[7]", "result": "0 of 10 on day 20"}
    ]},
    {"compound": "COc1cc2c3c(cccc3c1)C(=O)N(CCN(C)C)C2=O", "values": [
      {"measurement": "T/C", "setting": "dose: 80.0 mg/kg/injection, schedule: Q07DX002 (ip), vehicle: saline with Tween-80", "result": "125 % of control"},
      {"measurement": "survivor count", "setting": "dose: 160.0 mg/kg/injection, schedule: Q07DX002 (ip), vehicle: saline with Tween-80", "result": "1 of 10 on day 20"},
      {"measurement": "survivor count", "setting": "dose: 320.0 mg/kg/injection, schedule: Q07DX002 (ip), vehicle: saline with Tween-80", "result": "0 of 10 on day 20 and 2 of 10 on day 20"}
    ]},
    {"compound": "CCOC(=O)c1[nH]c2cccc3c2c1CC(Br)C3=O", "note": "(stereo not given)", "values": [
      {"measurement": "survivor count", "setting": "[3]", "result": "6 of 10 on day 20"},
      {"measurement": "survivor count", "setting": "[6]", "result": "0 of 10 on day 20"}
    ]},
    {"compound": "CCOC(=O)C(N)CSC(=O)NC", "note": "(stereo not given)", "values": [
      {"measurement": "survivor count", "setting": "dose: 1000.0 mg/kg/injection, schedule: Q07DX002 (ip), vehicle: saline", "result": "2 of 10 on day 20"}
    ]}
  ]
}
